From article doi:10.1101/2021.09.17.460294
No constants are given. Whether binding was seen depends on the method and setting. In cells and extracts the contact can be indirect. Binding calls can cover weak binding; strength is not graded here. Tags and fused reporters may be left off the sequences shown.

Biological target: T1, GST-LKB1 (UniProt Q15831)
T1 sequence: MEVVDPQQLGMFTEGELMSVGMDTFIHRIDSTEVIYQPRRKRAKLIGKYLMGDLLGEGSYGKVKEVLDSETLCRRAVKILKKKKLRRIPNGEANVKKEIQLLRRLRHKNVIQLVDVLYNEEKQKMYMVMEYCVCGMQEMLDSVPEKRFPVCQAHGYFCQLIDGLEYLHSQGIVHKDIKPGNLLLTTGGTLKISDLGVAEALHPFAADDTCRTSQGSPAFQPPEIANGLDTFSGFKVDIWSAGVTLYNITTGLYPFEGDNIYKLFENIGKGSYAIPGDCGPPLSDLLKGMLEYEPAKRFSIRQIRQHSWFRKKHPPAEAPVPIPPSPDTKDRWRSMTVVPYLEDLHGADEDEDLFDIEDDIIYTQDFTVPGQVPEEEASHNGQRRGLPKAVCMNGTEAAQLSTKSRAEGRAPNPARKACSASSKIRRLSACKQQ
Test: pull-down

Substance: Venus-flag (VF)-tagged cIAP1 BIR1 domain truncation (B1) (domain or fragment)
- binding: binds

Substance: Venus-flag (VF)-tagged cIAP1 BIR2 domain truncation (B2) (domain or fragment)
- binding: binds
